# Measured values as given in PubChem BioAssay AID624361 (Broad Institute, 2012).
# Inconclusive means that the source gave no clear call. Such entries were picked first, then a sample of the others. Active and inactive are the calls of the source. The rule behind the calls is not given here.
# Assay: inhibitors of LMP1-driven NF-kB reporter, dose response, cell-based, EBV LMP1, luciferase, dry powder, set 2 (AID 624361)
# Conditions: LMP1-induced NF-kappaB luciferase reporter cells, luminescence; at 35 µM (top of the series)
row,Compound,"activity change, negative = inhibition"
1,C[C@H](NC(=O)C[C@@H]1C=C[C@@H](NC(=O)Cc2ccccn2)[C@@H](CO)O1)c1ccccc1,inconclusive: 11%
2,CC(C)(C)[S@@](=O)N1Cc2cc(C(=O)NCc3ccccn3)nc(-c3cccc(-c4ccccc4F)c3)c2[C@H]1CCO,inconclusive: -56%
3,N#C[C@H]1N[C@H](CO)[C@H]1c1ccc(C#Cc2ccccc2F)cc1,inconclusive: -68.6%
4,O=C(C[C@@H]1C[C@@H]2c3cc(NS(=O)(=O)c4ccc(F)cc4)ccc3O[C@@H]2[C@H](CO)O1)NC1CCCCC1,inconclusive: 15.4%
5,C[C@@H]1CN([C@@H](C)CO)C(=O)c2c(c3ccccc3n2C)-c2ccccc2CO[C@H]1CN(C)C(=O)Nc1ccc(F)cc1,inactive: -8.29%
6,C[C@H](CO)N1C[C@H](C)[C@@H](CN(C)C(=O)Nc2ccc(F)cc2)OCc2ccccc2-c2c(n(C)c3ccccc23)C1=O,inconclusive: 22.1%
7,CN(C)C(=O)c1ccc(-c2cccc(-c3nc(C(=O)NCc4ccccc4)cc4c3[C@@H](CCO)N([S@](=O)C(C)(C)C)C4)c2)cc1,inconclusive: -83.1%
8,CO[C@H](CN(C)S(=O)(=O)c1cccc(Cl)c1)[C@@H](C)CN([C@H](C)CO)S(=O)(=O)c1ccc(Cl)cc1,inconclusive: -10.9%
9,COc1cccc(-c2cccc(-c3nc(C(=O)NCC(F)(F)F)cc4c3[C@H](CCO)N([S@@](=O)C(C)(C)C)C4)c2)c1,inconclusive: -44.8%
10,C[C@H]1CN([C@@H](C)CO)C(=O)c2c(c3ccccc3n2C)-c2ccccc2CO[C@H]1CN(C)C(=O)Nc1ccc(F)cc1,inconclusive: 195%
11,C[C@H](CO)N1C[C@H](C)[C@@H](CN(C)Cc2ccc(C(F)(F)F)cc2)Oc2ccc(NC(=O)Cc3ccccc3)cc2CC1=O,inactive: -11.3%

# 3 entries from above, sorted by number of heavy atoms, low to high.
row,Compound,"activity change, negative = inhibition"
9,COc1cccc(-c2cccc(-c3nc(C(=O)NCC(F)(F)F)cc4c3[C@H](CCO)N([S@@](=O)C(C)(C)C)C4)c2)c1,inconclusive: -44.8%
6,C[C@H](CO)N1C[C@H](C)[C@@H](CN(C)C(=O)Nc2ccc(F)cc2)OCc2ccccc2-c2c(n(C)c3ccccc23)C1=O,inconclusive: 22.1%
7,CN(C)C(=O)c1ccc(-c2cccc(-c3nc(C(=O)NCc4ccccc4)cc4c3[C@@H](CCO)N([S@](=O)C(C)(C)C)C4)c2)cc1,inconclusive: -83.1%
